In ChEMBL document CHEMBL4316593 (Eur J Med Chem, 2019):
This continues a long series; more values of the same kind are listed elsewhere.

Experiments:
Type in all cases: cell-based
Settings in all cases: U-87MG ATCC
[1] = Inhibition of RTK/PI3K/AKT/mTOR signaling in human U87 cells assessed as down regulation of TAF15 gene expression at cytotoxic IC50 measured after 48 hrs relative to control
[2] = Inhibition of RTK/PI3K/AKT/mTOR signaling in human U87 cells assessed as up regulation of thioredoxin like 4A gene expression at cytotoxic IC50 measured after 48 hrs relative to control
[3] = Inhibition of RTK/PI3K/AKT/mTOR signaling in human U87 cells assessed as down regulation of PKMYT1 gene expression at cytotoxic IC50 measured after 48 hrs relative to control
[4] = Inhibition of RTK/PI3K/AKT/mTOR signaling in human U87 cells assessed as down regulation of VPS26B gene expression at cytotoxic IC50 measured after 48 hrs relative to control
[5] = Inhibition of RTK/PI3K/AKT/mTOR signaling in human U87 cells assessed as down regulation of UBALD2 gene expression at cytotoxic IC50 measured after 48 hrs relative to control
[6] = Inhibition of RTK/PI3K/AKT/mTOR signaling in human U87 cells assessed as down regulation of SAMD4A gene expression at cytotoxic IC50 measured after 48 hrs relative to control
[7] = Inhibition of RTK/PI3K/AKT/mTOR signaling in human U87 cells assessed as down regulation of TNFRSF12A gene expression at cytotoxic IC50 measured after 48 hrs relative to control
[8] = Inhibition of RTK/PI3K/AKT/mTOR signaling in human U87 cells assessed as down regulation of PSMD8 gene expression at cytotoxic IC50 measured after 48 hrs relative to control
[9] = Inhibition of RTK/PI3K/AKT/mTOR signaling in human U87 cells assessed as down regulation of SCAF4 gene expression at cytotoxic IC50 measured after 48 hrs relative to control
[10] = Inhibition of RTK/PI3K/AKT/mTOR signaling in human U87 cells assessed as down regulation of FAM111A gene expression at cytotoxic IC50 measured after 48 hrs relative to control
[11] = Inhibition of RTK/PI3K/AKT/mTOR signaling in human U87 cells assessed as up regulation of SLC25A5 gene expression at cytotoxic IC50 measured after 48 hrs relative to control
[12] = Inhibition of RTK/PI3K/AKT/mTOR signaling in human U87 cells assessed as down regulation of VPS45 gene expression at cytotoxic IC50 measured after 48 hrs relative to control
[13] = Inhibition of RTK/PI3K/AKT/mTOR signaling in human U87 cells assessed as up regulation of CC2D2A gene expression at cytotoxic IC50 measured after 48 hrs relative to control
[14] = Inhibition of RTK/PI3K/AKT/mTOR signaling in human U87 cells assessed as down regulation of SRP14 gene expression at cytotoxic IC50 measured after 48 hrs relative to control
[15] = Inhibition of RTK/PI3K/AKT/mTOR signaling in human U87 cells assessed as up regulation of GPI gene expression at cytotoxic IC50 measured after 48 hrs relative to control
[16] = Inhibition of RTK/PI3K/AKT/mTOR signaling in human U87 cells assessed as up regulation of BAIAP2 antisense RNA 1 (head to head) gene expression at cytotoxic IC50 measured after 48 hrs relative to control
[17] = Inhibition of RTK/PI3K/AKT/mTOR signaling in human U87 cells assessed as down regulation of TIMP1 gene expression at cytotoxic IC50 measured after 48 hrs relative to control
[18] = Inhibition of RTK/PI3K/AKT/mTOR signaling in human U87 cells assessed as up regulation of galectin 1 gene expression at cytotoxic IC50 measured after 48 hrs relative to control
[19] = Inhibition of RTK/PI3K/AKT/mTOR signaling in human U87 cells assessed as up regulation of BEST1 gene expression at cytotoxic IC50 measured after 48 hrs relative to control
[20] = Inhibition of RTK/PI3K/AKT/mTOR signaling in human U87 cells assessed as down regulation of IRF7 gene expression at cytotoxic IC50 measured after 48 hrs relative to control
[21] = Inhibition of RTK/PI3K/AKT/mTOR signaling in human U87 cells assessed as up regulation of DLG3 gene expression at cytotoxic IC50 measured after 48 hrs relative to control
[22] = Inhibition of RTK/PI3K/AKT/mTOR signaling in human U87 cells assessed as down regulation of NFATC3 gene expression at cytotoxic IC50 measured after 48 hrs relative to control
[23] = Inhibition of RTK/PI3K/AKT/mTOR signaling in human U87 cells assessed as down regulation of GEM gene expression at cytotoxic IC50 measured after 48 hrs relative to control
[24] = Inhibition of RTK/PI3K/AKT/mTOR signaling in human U87 cells assessed as down regulation of DUSP6 gene expression at cytotoxic IC50 measured after 48 hrs relative to control
[25] = Inhibition of RTK/PI3K/AKT/mTOR signaling in human U87 cells assessed as down regulation of PCTP gene expression at cytotoxic IC50 measured after 48 hrs relative to control
[26] = Inhibition of RTK/PI3K/AKT/mTOR signaling in human U87 cells assessed as down regulation of TBCD gene expression at cytotoxic IC50 measured after 48 hrs relative to control
[27] = Inhibition of RTK/PI3K/AKT/mTOR signaling in human U87 cells assessed as down regulation of CD2BP2 gene expression at cytotoxic IC50 measured after 48 hrs relative to control
[28] = Inhibition of RTK/PI3K/AKT/mTOR signaling in human U87 cells assessed as up regulation of calponin 3 gene expression at cytotoxic IC50 measured after 48 hrs relative to control
[29] = Inhibition of RTK/PI3K/AKT/mTOR signaling in human U87 cells assessed as down regulation of CNKSR1 gene expression at cytotoxic IC50 measured after 48 hrs relative to control
[30] = Inhibition of RTK/PI3K/AKT/mTOR signaling in human U87 cells assessed as down regulation of LPCAT1 gene expression at cytotoxic IC50 measured after 48 hrs relative to control
[31] = Inhibition of RTK/PI3K/AKT/mTOR signaling in human U87 cells assessed as up regulation of lysophosphatidylcholine acyltransferase 2 gene expression at cytotoxic IC50 measured after 48 hrs relative to control
[32] = Inhibition of RTK/PI3K/AKT/mTOR signaling in human U87 cells assessed as up regulation of forkhead box D1 gene expression at cytotoxic IC50 measured after 48 hrs relative to control

SMILES: CC(=O)C(=NNc1ccccc1C#N)C(C)=O
- log2FC [1]: -0.487
- log2FC [2]: 0.724
- log2FC [3]: -1.09
- log2FC [4]: -0.551
- log2FC [5]: -0.689
- log2FC [6]: -1.58
- log2FC [7]: -0.985
- log2FC [8]: -0.604
- log2FC [9]: -0.673
- log2FC [10]: -1.27
- log2FC [11]: 0.541
- log2FC [12]: -0.983
- log2FC [13]: 1.92
- log2FC [14]: -0.486
- log2FC [15]: 2.52
- log2FC [16]: 0.92
- log2FC [17]: -0.978
- log2FC [18]: 1.29
- log2FC [19]: 1.66
- log2FC [20]: -1.44
- log2FC [21]: 0.51
- log2FC [22]: -0.785
- log2FC [23]: -0.503
- log2FC [24]: -0.342
- log2FC [25]: -0.784
- log2FC [26]: -0.993
- log2FC [27]: -0.877
- log2FC [28]: 0.808
- log2FC [29]: -0.809
- log2FC [30]: -0.689
- log2FC [31]: 0.72
- log2FC [32]: 0.903
